# Experimental data reported in publication PMC11773556, “Neuromodulating Alkaloids from Millipede Defensive Secretions” (Journal of Natural Products, 2024).
# The chains behind the UniProt entries cited, without tags or fusion partners. Where a name states a change or a piece, a line headed by the entry shows the natural chain unless it says otherwise. Residues count along the entry.
# UniProt P28566, whole entry, species assumed: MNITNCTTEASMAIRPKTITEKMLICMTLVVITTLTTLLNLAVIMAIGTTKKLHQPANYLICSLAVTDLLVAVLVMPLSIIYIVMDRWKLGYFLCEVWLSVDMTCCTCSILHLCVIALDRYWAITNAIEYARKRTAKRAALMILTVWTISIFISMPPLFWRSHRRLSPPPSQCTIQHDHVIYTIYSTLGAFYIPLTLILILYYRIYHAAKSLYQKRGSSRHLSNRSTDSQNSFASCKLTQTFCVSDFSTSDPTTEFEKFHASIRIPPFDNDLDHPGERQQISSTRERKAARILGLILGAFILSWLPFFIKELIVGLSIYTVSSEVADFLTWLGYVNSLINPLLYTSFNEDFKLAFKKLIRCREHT
# UniProt P28335, 33-458: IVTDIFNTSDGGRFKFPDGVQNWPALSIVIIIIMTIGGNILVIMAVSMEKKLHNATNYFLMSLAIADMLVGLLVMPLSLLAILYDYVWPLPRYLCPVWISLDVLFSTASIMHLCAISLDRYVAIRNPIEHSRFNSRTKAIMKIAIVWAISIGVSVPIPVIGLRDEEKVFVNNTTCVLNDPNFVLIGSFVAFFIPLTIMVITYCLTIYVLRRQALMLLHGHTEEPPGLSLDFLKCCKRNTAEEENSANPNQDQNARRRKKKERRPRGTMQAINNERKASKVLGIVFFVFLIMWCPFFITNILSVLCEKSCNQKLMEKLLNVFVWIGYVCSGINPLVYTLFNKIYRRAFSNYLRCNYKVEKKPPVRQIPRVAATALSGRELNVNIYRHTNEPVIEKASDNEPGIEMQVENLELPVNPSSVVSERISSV
# UniProt P47898, whole entry: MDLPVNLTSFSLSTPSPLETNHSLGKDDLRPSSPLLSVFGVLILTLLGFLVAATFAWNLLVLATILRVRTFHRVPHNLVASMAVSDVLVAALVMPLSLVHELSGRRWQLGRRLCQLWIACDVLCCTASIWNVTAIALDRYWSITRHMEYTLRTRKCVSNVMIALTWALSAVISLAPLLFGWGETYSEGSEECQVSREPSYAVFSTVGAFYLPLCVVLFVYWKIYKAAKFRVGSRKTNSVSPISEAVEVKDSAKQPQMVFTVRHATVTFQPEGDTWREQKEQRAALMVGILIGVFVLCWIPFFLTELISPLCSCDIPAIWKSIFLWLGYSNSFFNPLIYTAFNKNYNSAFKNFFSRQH
# UniProt P35348: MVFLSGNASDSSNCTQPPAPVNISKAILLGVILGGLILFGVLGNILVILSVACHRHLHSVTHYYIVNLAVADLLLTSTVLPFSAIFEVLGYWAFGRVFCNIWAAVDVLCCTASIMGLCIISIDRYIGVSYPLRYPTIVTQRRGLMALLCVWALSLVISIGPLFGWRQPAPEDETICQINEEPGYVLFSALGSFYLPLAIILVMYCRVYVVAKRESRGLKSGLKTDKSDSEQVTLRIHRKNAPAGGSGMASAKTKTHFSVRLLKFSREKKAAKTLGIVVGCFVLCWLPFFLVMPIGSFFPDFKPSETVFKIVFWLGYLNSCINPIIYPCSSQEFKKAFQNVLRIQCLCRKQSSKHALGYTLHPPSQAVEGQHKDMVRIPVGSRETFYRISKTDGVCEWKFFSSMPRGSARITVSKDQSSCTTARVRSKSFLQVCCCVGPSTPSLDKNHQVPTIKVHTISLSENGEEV
# UniProt P08913, whole entry: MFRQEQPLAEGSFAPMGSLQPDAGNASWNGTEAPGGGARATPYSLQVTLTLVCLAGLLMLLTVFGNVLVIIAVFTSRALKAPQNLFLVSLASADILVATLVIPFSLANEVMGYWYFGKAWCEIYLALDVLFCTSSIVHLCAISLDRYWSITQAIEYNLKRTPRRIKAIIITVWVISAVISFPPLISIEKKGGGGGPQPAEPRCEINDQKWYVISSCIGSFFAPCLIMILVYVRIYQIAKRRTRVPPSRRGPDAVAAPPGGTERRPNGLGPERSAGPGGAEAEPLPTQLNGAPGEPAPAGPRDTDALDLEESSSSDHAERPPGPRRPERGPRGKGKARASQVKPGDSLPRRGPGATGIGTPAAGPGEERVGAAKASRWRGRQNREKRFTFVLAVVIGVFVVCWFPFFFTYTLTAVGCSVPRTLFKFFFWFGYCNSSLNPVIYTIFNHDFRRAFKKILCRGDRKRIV
# UniProt P14416, whole entry: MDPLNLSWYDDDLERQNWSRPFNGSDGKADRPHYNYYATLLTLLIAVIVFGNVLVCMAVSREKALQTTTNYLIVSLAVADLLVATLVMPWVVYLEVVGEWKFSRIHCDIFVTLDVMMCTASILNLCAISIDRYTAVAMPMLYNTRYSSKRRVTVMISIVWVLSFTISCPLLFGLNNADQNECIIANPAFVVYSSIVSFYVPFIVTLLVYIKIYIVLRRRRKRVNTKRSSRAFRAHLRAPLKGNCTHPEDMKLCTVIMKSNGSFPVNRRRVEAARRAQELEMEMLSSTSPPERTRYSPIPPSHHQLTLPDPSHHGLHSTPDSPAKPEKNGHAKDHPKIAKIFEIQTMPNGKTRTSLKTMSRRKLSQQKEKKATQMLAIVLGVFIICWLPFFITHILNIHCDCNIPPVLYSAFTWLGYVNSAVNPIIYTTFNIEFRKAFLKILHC
# UniProt P21917, whole entry: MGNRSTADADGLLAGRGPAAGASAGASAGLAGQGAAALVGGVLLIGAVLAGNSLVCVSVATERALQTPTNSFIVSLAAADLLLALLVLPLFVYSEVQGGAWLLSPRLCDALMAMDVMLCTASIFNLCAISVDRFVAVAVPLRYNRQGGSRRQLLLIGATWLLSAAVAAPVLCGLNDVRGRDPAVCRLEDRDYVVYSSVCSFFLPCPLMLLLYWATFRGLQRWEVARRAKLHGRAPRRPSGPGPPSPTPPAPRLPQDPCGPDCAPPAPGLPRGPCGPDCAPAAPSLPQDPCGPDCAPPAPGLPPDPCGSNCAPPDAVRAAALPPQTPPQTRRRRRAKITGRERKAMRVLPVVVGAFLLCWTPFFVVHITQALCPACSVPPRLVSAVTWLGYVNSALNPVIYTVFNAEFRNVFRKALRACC
# UniProt Q01959, whole entry: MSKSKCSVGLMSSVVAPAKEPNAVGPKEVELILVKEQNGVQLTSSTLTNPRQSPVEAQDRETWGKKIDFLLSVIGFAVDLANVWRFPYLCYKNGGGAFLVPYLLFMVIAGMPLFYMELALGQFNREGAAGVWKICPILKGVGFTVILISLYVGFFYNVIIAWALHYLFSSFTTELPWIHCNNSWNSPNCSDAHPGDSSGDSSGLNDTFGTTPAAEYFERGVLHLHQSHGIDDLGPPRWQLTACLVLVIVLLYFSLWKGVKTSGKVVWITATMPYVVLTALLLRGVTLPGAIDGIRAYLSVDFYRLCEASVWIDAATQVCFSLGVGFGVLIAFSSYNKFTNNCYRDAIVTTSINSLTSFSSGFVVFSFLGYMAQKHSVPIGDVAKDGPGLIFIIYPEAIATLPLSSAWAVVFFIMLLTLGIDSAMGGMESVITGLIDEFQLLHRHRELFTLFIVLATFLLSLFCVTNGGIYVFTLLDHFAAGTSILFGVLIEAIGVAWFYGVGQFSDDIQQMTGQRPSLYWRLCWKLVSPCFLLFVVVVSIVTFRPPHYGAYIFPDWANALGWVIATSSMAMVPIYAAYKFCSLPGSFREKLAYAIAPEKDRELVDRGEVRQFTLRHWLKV
# UniProt P25021, whole entry: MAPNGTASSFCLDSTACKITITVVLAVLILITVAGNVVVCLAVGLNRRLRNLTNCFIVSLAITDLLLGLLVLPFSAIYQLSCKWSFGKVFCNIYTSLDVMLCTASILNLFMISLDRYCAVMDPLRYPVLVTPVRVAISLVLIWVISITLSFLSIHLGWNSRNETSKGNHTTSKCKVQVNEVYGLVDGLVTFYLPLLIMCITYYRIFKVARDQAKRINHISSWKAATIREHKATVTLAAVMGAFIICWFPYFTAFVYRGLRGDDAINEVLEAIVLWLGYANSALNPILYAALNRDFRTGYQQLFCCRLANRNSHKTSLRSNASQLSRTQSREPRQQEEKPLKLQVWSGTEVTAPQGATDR
# UniProt P08173, whole entry: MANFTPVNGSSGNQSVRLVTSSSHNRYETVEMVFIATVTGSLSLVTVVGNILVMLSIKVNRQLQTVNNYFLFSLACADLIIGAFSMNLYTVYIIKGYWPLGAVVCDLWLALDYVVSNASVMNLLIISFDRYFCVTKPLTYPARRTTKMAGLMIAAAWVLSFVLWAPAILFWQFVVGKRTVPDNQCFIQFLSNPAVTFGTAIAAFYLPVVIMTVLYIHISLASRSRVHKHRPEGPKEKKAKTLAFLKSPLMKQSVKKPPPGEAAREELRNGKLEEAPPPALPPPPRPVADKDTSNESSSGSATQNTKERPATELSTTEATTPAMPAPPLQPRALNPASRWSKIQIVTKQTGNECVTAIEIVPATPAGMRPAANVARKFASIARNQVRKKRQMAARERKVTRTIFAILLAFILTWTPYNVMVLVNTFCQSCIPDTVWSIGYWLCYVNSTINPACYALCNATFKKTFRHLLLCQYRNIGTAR
# UniProt P31645, whole entry: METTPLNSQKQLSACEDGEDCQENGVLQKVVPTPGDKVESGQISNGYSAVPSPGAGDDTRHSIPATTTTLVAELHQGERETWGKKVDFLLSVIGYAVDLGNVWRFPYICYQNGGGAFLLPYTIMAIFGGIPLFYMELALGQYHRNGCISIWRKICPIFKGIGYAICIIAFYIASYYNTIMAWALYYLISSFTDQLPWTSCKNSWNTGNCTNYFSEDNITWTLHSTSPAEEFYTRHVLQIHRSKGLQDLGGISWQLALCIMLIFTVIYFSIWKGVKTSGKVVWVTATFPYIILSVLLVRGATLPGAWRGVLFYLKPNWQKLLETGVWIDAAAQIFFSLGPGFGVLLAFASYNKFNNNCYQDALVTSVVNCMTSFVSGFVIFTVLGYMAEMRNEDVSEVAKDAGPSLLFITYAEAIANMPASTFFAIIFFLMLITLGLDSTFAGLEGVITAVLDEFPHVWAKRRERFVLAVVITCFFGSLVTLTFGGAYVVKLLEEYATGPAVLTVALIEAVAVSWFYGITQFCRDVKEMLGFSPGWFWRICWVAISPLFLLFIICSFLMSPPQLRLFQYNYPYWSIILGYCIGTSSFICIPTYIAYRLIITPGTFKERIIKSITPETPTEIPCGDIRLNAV
# UniProt P12390, 25-500: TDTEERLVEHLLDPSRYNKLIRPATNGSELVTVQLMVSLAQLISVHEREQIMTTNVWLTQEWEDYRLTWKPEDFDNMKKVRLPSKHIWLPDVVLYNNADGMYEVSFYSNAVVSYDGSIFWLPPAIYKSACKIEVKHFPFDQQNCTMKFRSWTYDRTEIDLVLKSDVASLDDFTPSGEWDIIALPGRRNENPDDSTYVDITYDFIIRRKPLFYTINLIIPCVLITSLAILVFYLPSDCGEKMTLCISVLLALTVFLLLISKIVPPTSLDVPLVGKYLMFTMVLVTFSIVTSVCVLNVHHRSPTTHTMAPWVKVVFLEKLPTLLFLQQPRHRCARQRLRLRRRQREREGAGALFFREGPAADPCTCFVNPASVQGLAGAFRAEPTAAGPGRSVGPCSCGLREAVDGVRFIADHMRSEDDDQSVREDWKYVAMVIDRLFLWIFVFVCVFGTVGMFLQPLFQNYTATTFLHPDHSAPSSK
# UniProt P12392, 21-495: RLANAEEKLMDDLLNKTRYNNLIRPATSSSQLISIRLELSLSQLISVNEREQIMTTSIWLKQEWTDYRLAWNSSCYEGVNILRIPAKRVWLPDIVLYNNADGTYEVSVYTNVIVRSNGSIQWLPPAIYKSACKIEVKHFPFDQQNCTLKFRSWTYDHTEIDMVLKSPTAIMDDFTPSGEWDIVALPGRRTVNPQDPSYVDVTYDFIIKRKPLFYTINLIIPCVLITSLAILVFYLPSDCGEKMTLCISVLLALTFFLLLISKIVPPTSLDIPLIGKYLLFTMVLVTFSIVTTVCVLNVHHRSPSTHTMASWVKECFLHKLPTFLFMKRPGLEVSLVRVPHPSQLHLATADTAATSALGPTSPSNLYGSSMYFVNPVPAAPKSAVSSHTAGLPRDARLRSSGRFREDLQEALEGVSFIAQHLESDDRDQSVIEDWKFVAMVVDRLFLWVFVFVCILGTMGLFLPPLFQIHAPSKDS
# UniProt P09483, 31-630: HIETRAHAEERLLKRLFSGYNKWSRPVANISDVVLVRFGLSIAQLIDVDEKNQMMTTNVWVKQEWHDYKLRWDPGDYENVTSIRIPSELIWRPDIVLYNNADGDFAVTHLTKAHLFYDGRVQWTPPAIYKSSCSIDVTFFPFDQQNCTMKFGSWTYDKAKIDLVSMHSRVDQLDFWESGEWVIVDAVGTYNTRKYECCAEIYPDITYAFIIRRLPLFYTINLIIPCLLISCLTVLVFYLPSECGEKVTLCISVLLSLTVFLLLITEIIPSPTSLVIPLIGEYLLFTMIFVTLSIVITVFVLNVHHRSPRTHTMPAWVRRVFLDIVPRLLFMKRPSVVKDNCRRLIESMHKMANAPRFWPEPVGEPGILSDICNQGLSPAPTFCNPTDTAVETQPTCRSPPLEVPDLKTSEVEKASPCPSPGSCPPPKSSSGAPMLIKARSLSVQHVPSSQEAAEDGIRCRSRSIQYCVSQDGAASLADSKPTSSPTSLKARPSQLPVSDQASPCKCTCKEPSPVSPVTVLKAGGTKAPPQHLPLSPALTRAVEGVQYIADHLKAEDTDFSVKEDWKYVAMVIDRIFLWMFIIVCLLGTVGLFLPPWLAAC
# Experiments:
# 5-HT1A = 5-HT1A (Homo sapiens, UniProt P08908); assay: biochemical; settings: read-out: Primary binding assay Inhibition, Mean %
# 5-HT1B = 5-HT1B (Homo sapiens, UniProt P28222); assay: biochemical; settings: read-out: Primary binding assay Inhibition, Mean %
# 5-HT1D = 5-HT1D (Homo sapiens, UniProt P28221); assay: biochemical; settings: read-out: Primary binding assay Inhibition, Mean %
# 5-HT1E = 5-HT1E (Homo sapiens, UniProt P28566); assay: biochemical; settings: for inhibition at 10 µM: read-out: Primary binding assay Inhibition, Mean %
# 5-HT2A = 5-HT2A (Homo sapiens, UniProt P28223); assay: biochemical; settings: read-out: Primary binding assay Inhibition, Mean %
# 5-HT2B = 5-HT2B (Homo sapiens, UniProt P41595); assay: biochemical; settings: for inhibition at 10 µM: read-out: Primary binding assay Inhibition, Mean %
# 5-HT2C = 5-HT2C (Homo sapiens, UniProt P28335); assay: biochemical; settings: read-out: Primary binding assay Inhibition, Mean %
# 5-HT3 = 5-HT3 (Homo sapiens, UniProt P46098); assay: biochemical; settings: read-out: Primary binding assay Inhibition, Mean %
# 5-HT5A = 5-HT5A (Homo sapiens, UniProt P47898); assay: biochemical; settings: read-out: Primary binding assay Inhibition, Mean %
# 5-HT6 = 5-HT6 (Homo sapiens, UniProt P50406); assay: biochemical; settings: read-out: Primary binding assay Inhibition, Mean %
# 5-HT7A = 5-HT7A (Homo sapiens, UniProt P34969); assay: biochemical; settings: read-out: Primary binding assay Inhibition, Mean %
# α1A = α1A (Homo sapiens, UniProt P35348); assay: biochemical; settings: read-out: Primary binding assay Inhibition, Mean %
# α1B = α1B (Homo sapiens, UniProt P35368); assay: biochemical; settings: read-out: Primary binding assay Inhibition, Mean %
# α1D = α1D (Homo sapiens, UniProt P25100); assay: biochemical; settings: read-out: Primary binding assay Inhibition, Mean %
# α2A = α2A (Homo sapiens, UniProt P08913); assay: biochemical; settings: read-out: Primary binding assay Inhibition, Mean %
# α2B = α2B (Homo sapiens, UniProt P18089); assay: biochemical; settings: read-out: Primary binding assay Inhibition, Mean %
# α2C = α2C (Homo sapiens, UniProt P18825); assay: biochemical; settings: read-out: Primary binding assay Inhibition, Mean %
# β1 = β1 (Homo sapiens, UniProt P08588); assay: biochemical; settings: read-out: Primary binding assay Inhibition, Mean %
# β2 = β2 (Homo sapiens, UniProt P07550); assay: biochemical; settings: read-out: Primary binding assay Inhibition, Mean %
# β3 = β3 (Homo sapiens, UniProt P13945); assay: biochemical; settings: read-out: Primary binding assay Inhibition, Mean %
# D1 = D1 (Homo sapiens, UniProt P21728); assay: biochemical; settings: for inhibition at 10 µM: read-out: Primary binding assay Inhibition, Mean %
# D2 = D2 (Homo sapiens, UniProt P14416); assay: biochemical; settings: read-out: Primary binding assay Inhibition, Mean %
# D3 = D3 (Homo sapiens, UniProt P35462); assay: biochemical; settings: for inhibition at 10 µM: read-out: Primary binding assay Inhibition, Mean %
# D4 = D4 (Homo sapiens, UniProt P21917); assay: biochemical; settings: read-out: Primary binding assay Inhibition, Mean %
# D5 = D5 (Homo sapiens, UniProt P21918); assay: biochemical; settings: read-out: Primary binding assay Inhibition, Mean %
# DAT = DAT (Homo sapiens, UniProt Q01959); assay: biochemical; settings: read-out: Primary binding assay Inhibition, Mean %
# DOR = DOR (Homo sapiens, UniProt P41143); assay: biochemical; settings: read-out: Primary binding assay Inhibition, Mean %
# H1 = H1 (Homo sapiens, UniProt P35367); assay: biochemical; settings: read-out: Primary binding assay Inhibition, Mean %
# H2 = H2 (Homo sapiens, UniProt P25021); assay: biochemical; settings: read-out: Primary binding assay Inhibition, Mean %
# H3 = H3 (Homo sapiens, UniProt Q9Y5N1); assay: biochemical; settings: read-out: Primary binding assay Inhibition, Mean %
# H4 = H4 (Homo sapiens, UniProt Q9H3N8); assay: biochemical; settings: read-out: Primary binding assay Inhibition, Mean %
# KOR = KOR (Homo sapiens, UniProt P41145); assay: biochemical; settings: read-out: Primary binding assay Inhibition, Mean %
# M1 = M1 (Homo sapiens, UniProt P11229); assay: biochemical; settings: read-out: Primary binding assay Inhibition, Mean %
# M2 = M2 (Homo sapiens, UniProt P08172); assay: biochemical; settings: read-out: Primary binding assay Inhibition, Mean %
# M3 = M3 (Homo sapiens, UniProt P20309); assay: biochemical; settings: read-out: Primary binding assay Inhibition, Mean %
# M4 = M4 (Homo sapiens, UniProt P08173); assay: biochemical; settings: read-out: Primary binding assay Inhibition, Mean %
# M5 = M5 (Homo sapiens, UniProt P08912); assay: biochemical; settings: read-out: Primary binding assay Inhibition, Mean %
# MOR = MOR (Homo sapiens, UniProt P35372); assay: biochemical; settings: read-out: Primary binding assay Inhibition, Mean %
# NET = NET (Homo sapiens, UniProt P23975); assay: biochemical; settings: read-out: Primary binding assay Inhibition, Mean %
# PBR = PBR (Rattus norvegicus, UniProt P16257); assay: biochemical; settings: read-out: Primary binding assay Inhibition, Mean %
# SERT = SERT (Homo sapiens, UniProt P31645); assay: biochemical; settings: read-out: Primary binding assay Inhibition, Mean %
# α2β2 = α2β2 (Rattus norvegicus, UniProt P12389+P12390); assay: biochemical; settings: read-out: Primary binding assay Inhibition, Mean %
# α2β4 = α2β4 (Rattus norvegicus, UniProt P12389+P12392); assay: biochemical; settings: read-out: Primary binding assay Inhibition, Mean %
# α3β2 = α3β2 (Rattus norvegicus, UniProt P04757+P12390); assay: biochemical; settings: read-out: Primary binding assay Inhibition, Mean %
# α3β4 = α3β4 (Rattus norvegicus, UniProt P04757+P12392); assay: biochemical; settings: read-out: Primary binding assay Inhibition, Mean %
# α4β2 = α4β2 (Rattus norvegicus, UniProt P09483+P12390); assay: biochemical; settings: read-out: Primary binding assay Inhibition, Mean %
# α4β2 (Rat Brain) = α4β2 (Rat Brain) (Rattus norvegicus, UniProt P09483+P12390); assay: biochemical; settings: read-out: Primary binding assay Inhibition, Mean %
# α4β4 = α4β4 (Rattus norvegicus, UniProt P09483+P12392); assay: biochemical; settings: read-out: Primary binding assay Inhibition, Mean %
# sigma-1 receptor (σ1R) [1] = target: T1, sigma-1 receptor (σ1R) (Homo sapiens, UniProt Q99720); settings: σ1, 10 μM, quadruplicate
# sigma-1 receptor (σ1R) [2] = target: T1, sigma-1 receptor (σ1R); assay: biochemical; settings: read-out: Primary binding assay Inhibition % (mean), σ1, 10 μM, quadruplicate
smiles,measurement,setting,value
"CCCC(=O)O[C@@H]1C2=CCN3CCC[C@@H]3[C@H]2CC(=O)C1(C)C [Compound 2, Ischnocybinone]",inhibition at 10 µM,5-HT1A,-11.6%
same,inhibition at 10 µM,5-HT1B,2.27%
same,inhibition at 10 µM,5-HT1D,1.58%
same,inhibition at 10 µM,5-HT1E,-21.4%
same,inhibition at 10 µM,5-HT2A,8%
same,Ki,5-HT2B,> 10 µM
same,inhibition at 10 µM,5-HT2B,-51.5%
same,inhibition at 10 µM,5-HT2C,6.48%
same,inhibition at 10 µM,5-HT3,-1.8%
same,inhibition at 10 µM,5-HT5A,-6.32%
same,inhibition at 10 µM,5-HT6,1.16%
same,inhibition at 10 µM,5-HT7A,21.5%
same,inhibition at 10 µM,α1A,9.04%
same,inhibition at 10 µM,α1B,-17%
same,inhibition at 10 µM,α1D,16.2%
same,inhibition at 10 µM,α2A,34.1%
same,inhibition at 10 µM,α2B,15%
same,inhibition at 10 µM,α2C,15.7%
same,inhibition at 10 µM,β1,-10.5%
same,inhibition at 10 µM,β2,-3.54%
same,inhibition at 10 µM,β3,25.5%
same,Ki,D1,> 10 µM
same,inhibition at 10 µM,D1,54.9%
same,inhibition at 10 µM,D2,23.2%
same,Ki,D3,5.39 µM
same,inhibition at 10 µM,D3,85.5%
same,inhibition at 10 µM,D4,15.2%
same,inhibition at 10 µM,D5,-22.3%
same,inhibition at 10 µM,DAT,-12.5%
same,inhibition at 10 µM,DOR,-22.6%
same,inhibition at 10 µM,H1,8.88%
same,inhibition at 10 µM,H2,15.8%
same,inhibition at 10 µM,H3,22.1%
same,inhibition at 10 µM,H4,18.9%
same,inhibition at 10 µM,KOR,5.58%
same,inhibition at 10 µM,M1,0.45%
same,inhibition at 10 µM,M2,14.3%
same,inhibition at 10 µM,M3,7.36%
same,inhibition at 10 µM,M4,7.63%
same,inhibition at 10 µM,M5,13.9%
same,inhibition at 10 µM,MOR,-2.53%
same,inhibition at 10 µM,NET,25.5%
same,inhibition at 10 µM,PBR,-42.5%
same,inhibition at 10 µM,SERT,-0.21%
same,inhibition at 10 µM,α2β2,11.7%
same,inhibition at 10 µM,α2β4,17.6%
same,inhibition at 10 µM,α3β2,-18.8%
same,inhibition at 10 µM,α3β4,-4.49%
same,inhibition at 10 µM,α4β2,-3.17%
same,inhibition at 10 µM,α4β2 (Rat Brain),7%
same,inhibition at 10 µM,α4β4,-31.2%
"CCCC(=O)O[C@H]1[C@H]2[C@H](CCN3CCC[C@@H]23)CC(C)(C)[C@H]1OC(=O)CCC [Compound 4, Ischnocybine C]",Primary binding assay Inhibition % (mean),sigma-1 receptor (σ1R) [1],93 ± 7%
same,inhibition at 10 µM,5-HT1A,-23.6%
same,inhibition at 10 µM,5-HT1B,0.67%
same,inhibition at 10 µM,5-HT1D,8.52%
same,Ki,5-HT1E,> 10 µM
same,inhibition at 10 µM,5-HT1E,-26.6%
same,inhibition at 10 µM,5-HT2A,14.2%
same,inhibition at 10 µM,5-HT2B,12.7%
same,inhibition at 10 µM,5-HT2C,14.8%
same,inhibition at 10 µM,5-HT3,0.7%
same,inhibition at 10 µM,5-HT5A,-3.71%
same,inhibition at 10 µM,5-HT6,12.1%
same,inhibition at 10 µM,5-HT7A,23.4%
same,inhibition at 10 µM,α1A,9.07%
same,inhibition at 10 µM,α1B,13.1%
same,inhibition at 10 µM,α1D,6.19%
same,inhibition at 10 µM,α2A,47.2%
same,inhibition at 10 µM,α2B,43.3%
same,inhibition at 10 µM,α2C,70.6%
same,inhibition at 10 µM,β1,13.1%
same,inhibition at 10 µM,β2,3.17%
same,inhibition at 10 µM,β3,-2.63%
same,Ki,D1,> 10 µM
same,inhibition at 10 µM,D1,54.1%
same,inhibition at 10 µM,D2,10.8%
same,inhibition at 10 µM,D3,42.4%
same,inhibition at 10 µM,D4,-5.52%
same,inhibition at 10 µM,D5,-2.17%
same,inhibition at 10 µM,DAT,-17.6%
same,inhibition at 10 µM,DOR,-21.6%
same,inhibition at 10 µM,H1,8.69%
same,inhibition at 10 µM,H2,21.5%
same,inhibition at 10 µM,H3,9.66%
same,inhibition at 10 µM,H4,-7.33%
same,inhibition at 10 µM,KOR,6.27%
same,inhibition at 10 µM,M1,11.1%
same,inhibition at 10 µM,M2,13.6%
same,inhibition at 10 µM,M3,8.65%
same,inhibition at 10 µM,M4,2.81%
same,inhibition at 10 µM,M5,7.8%
same,inhibition at 10 µM,MOR,0.93%
same,inhibition at 10 µM,NET,12.6%
same,inhibition at 10 µM,PBR,-10.8%
same,inhibition at 10 µM,SERT,13.1%
same,inhibition at 10 µM,sigma-1 receptor (σ1R) [2],93.4%
same,inhibition at 10 µM,α2β2,-4.83%
same,inhibition at 10 µM,α2β4,0.87%
same,inhibition at 10 µM,α3β2,-3.93%
same,inhibition at 10 µM,α3β4,-27.4%
same,inhibition at 10 µM,α4β2,-9.66%
same,inhibition at 10 µM,α4β2 (Rat Brain),4.62%
same,inhibition at 10 µM,α4β4,-16.5%
